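Whole-cell growth test on Mycobacterium tuberculosis, read after 3 days in glucose-containing 7H9 medium; the read-out is not stated. Concentration: 50 µM. Higher reads as more growth inhibition (inferred: compounds with an IC50 in retests scored well above the rest). Of about 69,000 compounds tested this way, about 760 (1.1%) reached 50% or more in at least one test.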

Results are given as percent effect.
How 0% and 100% were set is not recorded. Most values in the screen are low, and negative values occur.
Compounds were drawn at random from those tested, without regard to their results.
Two or more numbers in one place are separate tests of the same structure; such repeats can differ widely.

Compound: [H][C@@]12CS(=O)(=O)C[C@]1([H])N(Cc1cc(Cl)cc(Cl)c1)CCN2CC1CC1
Percent Effect: 23.95%

Compound: CN(C)Cc1nnc(C2CCCN(c3nccc4ccccc34)C2)n1C (centres unmarked)
Percent Effect: 0.8958% & -0.5308%

Compound: CC(C)C(O)CCNC(=O)Nc1cc(F)ccc1-n1cccn1 (centres unmarked)
Percent Effect: 33.26%

Compound: c1cc(C2CN(C3CCCC3)C2)n[nH]1
Percent Effect: -21.42%

Compound: O=C(C1CNCCN1C(=O)CCc1cccnc1)N1CCOCC1 (centres unmarked)
Percent Effect: -0.3732% & -22.53%

Compound: c1cc(CCN2CCCC2CN2CCCCC2)ccn1 (centres unmarked)
Percent Effect: 5.023%

Compound: O=C(O)C(F)(F)F.O=C(O)C(F)(F)F.[H][C@@]12C[C@@H](C(=O)NC)N(C(C)C)[C@]1([H])CN(Cc1c(C)noc1C)C2
Percent Effect: -28.8%

Compound: Cc1cc(CN(C)Cc2ncc(C(C)(C)C)o2)no1
Percent Effect: -44.61%

Compound: CC(C)(O)CCc1cccc(C(=O)N[C@@H](CO)C(N)=O)c1
Percent Effect: -4.606% & -7.691%

Compound: COc1cc(CNC(C)Cn2cccn2)cc(OC)c1OC.Cl (centres unmarked)
Percent Effect: 1.872%

Compound: NC(=O)NC1CCN(Cc2ccc(Br)c(F)c2)CC1
Percent Effect: -2.555% & -1.2%

Compound: CC(Cc1ccco1)NC(=O)Nc1ccc(S(C)(=O)=O)nc1 (centres unmarked)
Percent Effect: 16.41%

Compound: [H][C@]12CCN(c3cc(OC)ncn3)[C@@]1([H])C[C@@H](C(=O)NCCOC)O2
Percent Effect: -28.58%

Compound: COC[C@H]1CCC[C@]12CN(S(=O)(=O)c1cccs1)CCO2
Percent Effect: 3.387% & 1.203%

Compound: COc1ccccc1N1CCC(CNS(=O)(=O)c2cccs2)C1 (centres unmarked)
Percent Effect: -4.149% & -0.2909%

Compound: CC(=O)NC1CCN(C(=O)Nc2ccc(SC(F)F)cc2)CC1
Percent Effect: 20.91%

Compound: CC(C)c1nc2n(n1)CC(NCc1nnc(C(C)C)o1)CC2 (centres unmarked)
Percent Effect: 18.6%

Compound: COc1cc(N2CCC3(CCCN(C(=O)c4cccnc4)C3)C2)ncn1.O=C(O)C(F)(F)F (centres unmarked)
Percent Effect: 2.028% & 5.667%

Compound: Cc1nc(N(C)C)nc2c1COCC21CCN(C(=O)NCC(C)C)C1 (centres unmarked)
Percent Effect: 12.03%

Compound: COc1ccc(CCC2CCCN(C(=O)CCc3cc(O)no3)C2)cc1 (centres unmarked)
Percent Effect: -13.36% & 5.511%

Compound: Cc1cnn(CC2CCCN2C(=O)c2ccc3[nH]c(=O)[nH]c3c2)c1 (centres unmarked)
Percent Effect: -10.74%

Compound: Cc1ccc(F)cc1NC(=O)c1[nH]ncc1Br
Percent Effect: 20.56% & 15.67%

Compound: CCc1nc(CCn2ccc3nc(OC)c(C#N)cc3c2=O)no1
Percent Effect: -2.015%

Compound: CC1CN(c2ccc(CNC(=O)c3ccn(C)c(=O)c3)cn2)CCO1 (centres unmarked)
Percent Effect: -2.909%

Compound: Cc1noc(C)c1CCC(=O)N(C)C(C)c1cccs1 (centres unmarked)
Percent Effect: -20.56%

Compound: CN1CCC(Cc2noc(-c3cn(Cc4ccc(F)cc4)nn3)n2)CC1
Percent Effect: -33.04%

Compound: CC(=O)NCCC(=O)NC(C)c1sc(-c2ccccc2F)nc1C (centres unmarked)
Percent Effect: -11.17%

Compound: Cc1[nH]ncc1C(=O)N1CCCC1c1noc(C2CC2)n1 (centres unmarked)
Percent Effect: -17.46%

Compound: Cc1c2ncn(CC(=O)N(C)C)c(=O)c2nn1C
Percent Effect: -17.51%

Compound: COc1ccc(CC(=O)N2CCCC(n3nc(C)cc3C)C2)cc1F (centres unmarked)
Percent Effect: -4.019%

Compound: C[C@@H](NC(=O)c1cnccn1)c1c(-c2ccc(Cl)cc2)noc1C(=O)O.Cl
Percent Effect: 3.421% & -16.22%

Compound: Cc1ccccc1OCCCC(=O)NCC1CN(C)CCO1 (centres unmarked)
Percent Effect: 5.935%

Compound: COc1ccc(CN2CCC3(CC2)NC(=O)CC3c2ccncc2)cc1.O=C(O)C(F)(F)F.O=C(O)C(F)(F)F (centres unmarked)
Percent Effect: -28.91%

Compound: O=C(CN1CCC(c2ccccc2)C1)NC(=O)NCC(F)(F)F (centres unmarked)
Percent Effect: -12.19%

Compound: O=C(COc1ccccc1)N1CCCC1c1ccc[nH]1 (centres unmarked)
Percent Effect: 0.852%

Compound: OC1CCN(c2ccccc2NCc2nc(-c3cccs3)no2)CC1
Percent Effect: 8.023%

Compound: Cc1cnn(CCNCC(=O)Nc2ccc(Cl)cn2)c1
Percent Effect: 5.275% & -20.87%

Compound: CCCn1c(N2CCCC2)nc2c(C)nn(C)c2c1=O
Percent Effect: -0.1332%

Compound: CCc1c(C(=O)N2CCC(CC(N)=O)CC2)cnn1C(C)(C)C
Percent Effect: 12.33%

Compound: O=C(CSC1=NS(=O)(=O)c2cc(Cl)ccc2N1)c1ccccc1
Percent Effect: -7.205%

Compound: O=C(O)C(=O)O.c1cnc(-c2noc(C3CN(Cc4ccc5c(c4)CCO5)C3)n2)cn1
Percent Effect: 1.436% & 18.39%

Compound: CN(C)C(=O)CN1CC[C@]2(CN(CC3CC3)C[C@H]2c2ccccc2)C1=O.O=C(O)C(F)(F)F
Percent Effect: 11.07%

Compound: O=C1NCCCc2[nH]c(Cc3cccc(Cl)c3)nc21
Percent Effect: -4.65%

Compound: Cc1ccc(C)c2c1NC(=O)C2CC(=O)O (centres unmarked)
Percent Effect: 10%

Compound: COc1ccc2c(ccn2CCC(=O)NCCCC(=O)O)c1
Percent Effect: 3.356%

Compound: [H][C@]12CCN(S(=O)(=O)c3ccc(C)cc3)[C@@]1([H])[C@@H](NC(=O)c1n[nH]cc1Cl)C2
Percent Effect: 12.19%

Compound: NCCO[C@H]1C[C@@H](O)C12CCN(Cc1c(F)cccc1F)CC2
Percent Effect: 14.09%

Compound: CC(=O)Nc1ncc(S(=O)(=O)Nc2ccccc2)s1
Percent Effect: 22.06%

Compound: CN(CCNc1cc(N2CCCC2CO)ncn1)Cc1ccccc1 (centres unmarked)
Percent Effect: -30.16%

Compound: [H][C@]12CC[C@]([H])(CN(C(=O)c3ccncc3)C1)N(C(=O)C1CCCC1)C2
Percent Effect: -6.332%

The last 4 entries again:

* NCCO[C@H]1C[C@@H](O)C12CCN(Cc1c(F)cccc1F)CC2 : 14.09%
* CC(=O)Nc1ncc(S(=O)(=O)Nc2ccccc2)s1 : 22.06%
* CN(CCNc1cc(N2CCCC2CO)ncn1)Cc1ccccc1 (centres unmarked) : -30.16%
* [H][C@]12CC[C@]([H])(CN(C(=O)c3ccncc3)C1)N(C(=O)C1CCCC1)C2 : -6.332%

The values are deposited in ChEMBL (CHEMBL3988442, “University of Dundee, Small-Polar-MMV Screening Library” (2021)).